Here are results for one compound from US20040097529A1, “Novel use of arylethene sulfonamide derivative” (priority 2001, published 2004).

The test concerns diabetic rats induced by streptozotocin (STZ). The test can be described thus: Effect on the blood parameter and urinary parameter in diabetic rats induced by streptozotocin (STZ). In kind it is in vivo, Wistar (Crj) rats. As to conditions: Compound 1 1 mg/kg p.o., after 2 weeks. On the procedure: Wistar (Crj) rats of 9 weeks of age were divided into 5 groups so that there was no bias in urinary albumin excretion. To the 4 groups of the rats was administered intravenously STZ (50 mg/kg). […] After the lapse of 2, 4 and 6 weeks from the start of administration, urine was collected for 24 hours in a metabolic cage to measure a urinary parameter. The blood was collected from the tail vein after 2 and 4 weeks and from the abdominal aorta under anesthesia after 6 weeks to measure a blood parameter.
The results were indicated by the mean±error. In comparison between the Sham group and the STZ-Cont. group, a t-test was made without correspondence, and when the significant level is less than 5%, it is considered as a significant difference. In comparison between the STZ-dose groups of rats, multiple comparison (Dunnett's test) was made respectively without correspondence following the variance analysis of one-way classification. When the significant level is less than 5%, it is considered as a significant difference.

`COc1ccccc1Oc1c(NS(=O)(=O)C=Cc2ccccc2)nc(-c2ncccn2)nc1OC` [Compound 1, N-[6-Methoxy-5-(2-methoxyphenoxy)-2-(pyrimidin-2-yl)pyrimidin-4-yl]-2-phenylethenesulfonamide]: the “inhibition of elevation of creatinine clearance (Ccr)” value is given as “there was a tendency that elevation of Ccr after 2 weeks from the start of administration was inhibited”.
